From PMC8270898 come the findings set out here.

Chains of the proteins cited; added tags and fusions are not shown.
UniProt Q8N6T7: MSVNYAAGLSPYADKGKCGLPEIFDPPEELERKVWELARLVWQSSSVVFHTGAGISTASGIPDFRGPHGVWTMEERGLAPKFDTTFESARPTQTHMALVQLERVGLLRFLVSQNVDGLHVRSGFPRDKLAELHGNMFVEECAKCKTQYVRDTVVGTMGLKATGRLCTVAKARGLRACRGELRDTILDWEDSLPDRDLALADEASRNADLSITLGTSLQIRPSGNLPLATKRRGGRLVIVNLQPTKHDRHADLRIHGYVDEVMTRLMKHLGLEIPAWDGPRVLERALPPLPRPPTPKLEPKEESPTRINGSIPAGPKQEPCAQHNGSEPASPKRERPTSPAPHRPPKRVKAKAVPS
UniProt Q12834: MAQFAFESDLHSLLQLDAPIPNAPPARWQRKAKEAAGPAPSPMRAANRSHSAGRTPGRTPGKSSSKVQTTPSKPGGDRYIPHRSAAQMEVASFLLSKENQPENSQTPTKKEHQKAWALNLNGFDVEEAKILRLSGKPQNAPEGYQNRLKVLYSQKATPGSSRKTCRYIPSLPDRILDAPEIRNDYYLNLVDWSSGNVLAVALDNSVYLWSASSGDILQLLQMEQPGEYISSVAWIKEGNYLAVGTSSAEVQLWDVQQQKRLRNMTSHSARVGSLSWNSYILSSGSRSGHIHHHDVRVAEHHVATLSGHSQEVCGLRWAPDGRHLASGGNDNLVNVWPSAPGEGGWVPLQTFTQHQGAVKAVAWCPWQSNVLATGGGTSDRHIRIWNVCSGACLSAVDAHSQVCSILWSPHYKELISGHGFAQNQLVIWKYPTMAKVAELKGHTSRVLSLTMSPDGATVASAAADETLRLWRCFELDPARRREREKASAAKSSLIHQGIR
UniProt Q9UM11: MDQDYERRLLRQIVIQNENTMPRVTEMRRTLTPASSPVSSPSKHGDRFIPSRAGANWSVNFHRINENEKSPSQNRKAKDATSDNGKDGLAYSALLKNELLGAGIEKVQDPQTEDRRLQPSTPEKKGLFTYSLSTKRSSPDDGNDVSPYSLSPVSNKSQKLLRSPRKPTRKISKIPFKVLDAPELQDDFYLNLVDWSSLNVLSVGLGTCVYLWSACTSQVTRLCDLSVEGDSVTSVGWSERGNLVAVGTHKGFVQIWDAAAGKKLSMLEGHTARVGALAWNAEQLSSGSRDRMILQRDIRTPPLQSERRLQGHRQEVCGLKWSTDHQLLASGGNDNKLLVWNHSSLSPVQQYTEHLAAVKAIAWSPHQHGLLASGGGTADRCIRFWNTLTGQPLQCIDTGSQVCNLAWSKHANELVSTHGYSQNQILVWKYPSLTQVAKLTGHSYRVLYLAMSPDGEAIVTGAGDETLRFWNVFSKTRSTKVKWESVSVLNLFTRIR
UniProt Q9H1A4: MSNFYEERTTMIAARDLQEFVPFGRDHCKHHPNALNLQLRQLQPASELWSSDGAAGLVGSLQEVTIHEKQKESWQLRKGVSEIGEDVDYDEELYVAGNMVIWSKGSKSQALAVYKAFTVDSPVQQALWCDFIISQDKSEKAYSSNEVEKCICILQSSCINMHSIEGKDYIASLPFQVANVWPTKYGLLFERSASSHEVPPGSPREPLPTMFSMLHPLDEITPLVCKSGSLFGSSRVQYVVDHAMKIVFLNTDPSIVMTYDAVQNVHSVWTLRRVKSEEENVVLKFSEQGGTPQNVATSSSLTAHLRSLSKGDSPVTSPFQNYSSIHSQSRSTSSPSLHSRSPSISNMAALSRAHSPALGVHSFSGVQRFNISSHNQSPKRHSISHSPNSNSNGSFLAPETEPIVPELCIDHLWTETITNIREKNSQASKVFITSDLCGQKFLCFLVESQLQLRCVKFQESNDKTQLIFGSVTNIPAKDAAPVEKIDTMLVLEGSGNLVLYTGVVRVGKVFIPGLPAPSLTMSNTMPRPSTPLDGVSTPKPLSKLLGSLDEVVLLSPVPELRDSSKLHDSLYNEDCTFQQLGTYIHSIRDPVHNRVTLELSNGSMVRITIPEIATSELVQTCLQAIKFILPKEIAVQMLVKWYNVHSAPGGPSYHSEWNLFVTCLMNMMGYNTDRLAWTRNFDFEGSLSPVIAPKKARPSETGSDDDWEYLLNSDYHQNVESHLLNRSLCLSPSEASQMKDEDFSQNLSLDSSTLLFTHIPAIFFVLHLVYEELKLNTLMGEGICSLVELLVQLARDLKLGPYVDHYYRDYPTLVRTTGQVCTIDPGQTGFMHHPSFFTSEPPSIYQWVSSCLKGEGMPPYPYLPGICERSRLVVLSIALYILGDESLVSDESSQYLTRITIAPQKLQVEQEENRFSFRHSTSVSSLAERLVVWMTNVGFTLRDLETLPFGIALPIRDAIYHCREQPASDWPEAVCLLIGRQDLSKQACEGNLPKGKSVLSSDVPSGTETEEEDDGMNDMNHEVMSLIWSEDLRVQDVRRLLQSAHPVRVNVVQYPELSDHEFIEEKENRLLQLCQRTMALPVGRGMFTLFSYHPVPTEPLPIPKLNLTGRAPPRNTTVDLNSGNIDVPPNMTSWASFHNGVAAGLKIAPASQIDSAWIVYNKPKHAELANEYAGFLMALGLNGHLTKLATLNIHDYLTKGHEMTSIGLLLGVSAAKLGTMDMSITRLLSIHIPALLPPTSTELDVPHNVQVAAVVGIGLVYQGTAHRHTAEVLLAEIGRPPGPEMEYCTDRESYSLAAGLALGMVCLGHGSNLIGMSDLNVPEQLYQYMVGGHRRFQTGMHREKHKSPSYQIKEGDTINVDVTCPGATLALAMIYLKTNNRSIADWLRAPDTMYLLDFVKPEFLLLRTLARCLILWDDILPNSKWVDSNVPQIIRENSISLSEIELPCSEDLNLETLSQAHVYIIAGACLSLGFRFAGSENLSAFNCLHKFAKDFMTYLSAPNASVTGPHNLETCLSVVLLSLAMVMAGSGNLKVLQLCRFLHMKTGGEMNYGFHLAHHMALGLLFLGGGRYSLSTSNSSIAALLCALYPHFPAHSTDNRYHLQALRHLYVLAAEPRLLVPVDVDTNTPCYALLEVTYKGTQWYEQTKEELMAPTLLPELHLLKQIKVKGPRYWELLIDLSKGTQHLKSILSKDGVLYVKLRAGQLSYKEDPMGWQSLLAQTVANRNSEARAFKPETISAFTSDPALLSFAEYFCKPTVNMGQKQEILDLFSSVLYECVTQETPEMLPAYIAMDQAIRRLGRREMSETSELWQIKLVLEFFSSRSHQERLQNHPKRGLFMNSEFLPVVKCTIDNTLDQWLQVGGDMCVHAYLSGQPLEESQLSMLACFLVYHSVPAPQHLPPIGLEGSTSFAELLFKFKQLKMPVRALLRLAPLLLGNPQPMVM

No constants are given. Whether binding was seen depends on the method and setting. In cells and extracts the contact can be indirect. Some results given as binding are weak or reduced against the parent protein; the word gives no strength.

The target in test [1] is SIRT6 (human (endogenous in HeLa)) (UniProt Q8N6T7). Kind of test: co-IP; lysates of asynchronous HeLa cells; endogenous proteins precipitated with anti-SIRT6, anti-APC1, anti-CDC20 or anti-CDH1 antibody or normal IgG, protein A or G agarose, 4 °C; immunoblotting.
For test [2], the target named is CDC20 (human (endogenous in HeLa)) (UniProt Q12834). The description is as above.
Test [3] addresses CDH1 (human (endogenous in HeLa)) (UniProt Q9UM11). The description is as above.
Test [4] deals with APC1 (human (endogenous in HeLa)) (UniProt Q9H1A4). The test is described as above.
The target in the next test is CDC20-HA (UniProt Q12834). The experiment in a line: co-IP; lysates of HeLa cells stably expressing CDC20-HA or CDH1-HA along with SIRT6-FLAG; anti-HA beads overnight at 4 °C; immunoblotting; protein A/G as unspecific control.
The next test addresses CDH1-HA (UniProt Q9UM11). Described as above.

Consider CDC20 (from UniProt Q12834 1-499), for which the binding result in test [1] was “binds”.

For the substance SIRT6 (from UniProt Q8N6T7 1-355), the binding result in test [2], in test [3] and in test [4] was “binds” in each case.

For the substance SIRT6-FLAG (from UniProt Q8N6T7 1-355), the binding entry with CDC20-HA and in the test with CDH1-HA was “binds” throughout.

With CDH1 (from UniProt Q9UM11 1-496), in test [1], the binding entry was “binds”.

In the case of APC1 (from UniProt Q9H1A4 1-1944), in test [1], the binding result is given as “binds”.
